# Experimental data reported in PubChem BioAssay AID540256 (National Center for Advancing Translational Sciences (NCATS), 2011).
# Among all 300,000 compounds or so, about 3,700 (1.2%) were called active. Inconclusive means that the source gave no clear call. Such entries were picked first, then a sample of the others. Calls come from the whole dose curve; tested in HEK293 cells. Where the call is inconclusive, the potency comes from a doubtful curve fit.
# Assay: qHTS for Inhibitors of binding or entry into cells for Lassa Virus; note: nearly all actives have a fitted effect of over 50% in size
# Settings: Lassa virus pseudotype entry inhibition, cell reporter; series mostly up to 37.9 µM
# Potency is the fitted concentration of half-maximal effect.
row,Structure (SMILES),Potency
1,COc1ccc(-c2ncc(CN3CCN(CCC(C)C)C(CCO)C3)cn2)cc1 (stereo not drawn),inactive
2,CCOC(=O)c1c(C=O)c(C)n(Cc2ccc(Cl)cc2)c1C,inactive
3,CCOC(=O)N1CCC(N2C(=O)c3ccccc3C2Nc2cc(C)cc(C)c2)CC1 (stereo not drawn),"inconclusive: 35.5 µM [inhibitor, single point]"
4,CCOC(=O)c1nc(Nc2ccc(OC)cc2)c2ccccc2n1,"inconclusive: 20 µM [inhibitor, single point]"
5,CC(C)COP(=O)(CNC(=O)CN1C(=O)c2ccccc2S1(=O)=O)OCC(C)C,inactive
6,CN1CCN(C(=O)COc2ccc(Oc3ccccc3)cc2)CC1,inactive
7,CCc1nn2c(-c3ccco3)ccnc2c1-c1ccc(F)cc1,"inconclusive: 10 µM [activator, partial curve, poor fit]"
8,CCCCN(C(=O)c1cc(S(=O)(=O)N2CCCCCC2)ccc1OC)c1ccccc1,"inconclusive: 35.5 µM [inhibitor, single point]"
9,CCn1c(/C=C/c2ccc([N+](=O)[O-])o2)nc2ccccc2c1=O,active: 3.66 µM
10,COc1cc(CNC2CCCC2)cc(Cl)c1OCc1ccc(F)cc1,"inconclusive: 11.2 µM [inhibitor, partial curve]"
11,O=C(C1CCCC1)N1CCN=C1SCc1cccc([N+](=O)[O-])c1,"inconclusive: 12.6 µM [inhibitor, partial curve]"
12,COc1cc(Cl)c(NC(=O)c2cc(S(=O)(=O)N3CCOCC3)cn2C)c(OC)c1,inactive
13,COc1cccc2cc(C(C)N(CCCN3CCOCC3)C(=S)Nc3cccc(C)c3C)oc12 (stereo not drawn),"inconclusive: 17.8 µM [inhibitor, single point]"
14,CCOC(=O)c1ccc(-c2ccc(/C=C(\C#N)C(=O)Nc3c(C)cccc3Cl)o2)cc1,"inconclusive: 35.5 µM [activator, single point]"
15,CC(C)OC(=O)/C(C#N)=C/c1c[nH]c2ccccc12,"inconclusive: 35.5 µM [inhibitor, single point]"
16,Cc1ccc(S(=O)(=O)Nc2ccc(-c3ccc(N4CCCCCC4)nn3)cc2)cc1C,inactive
17,O=C(N/N=C/c1cn(Cc2ccccc2)c2ccccc12)c1ccncc1,"inconclusive: 12.6 µM [inhibitor, partial curve, poor fit]"
18,C#CCSc1nc2sc3c(c2c(=O)n1-c1cccc(OC)c1)CCN(C(C)=O)C3,"inconclusive: 3.16 µM [inhibitor, partial curve, poor fit]"
19,CCCC1=C(C(=O)OCC)C(c2cc(Cl)cc(OC)c2OCC(=O)OCC)NC(=O)N1 (stereo not drawn),"inconclusive: 14.1 µM [inhibitor, partial curve]"
20,CC(C)NC(=S)N/N=C/C1=CCC2CC1C2(C)C (stereo not drawn),"inconclusive: 12.6 µM [inhibitor, partial curve]"
21,Cc1ccc(C)c(OCC(=O)O/N=C(\N)c2cccc([N+](=O)[O-])c2)c1,"inconclusive: 4.47 µM [inhibitor, full curve, poor fit]"
22,O=C(/C=C/Nc1ccc(F)cc1F)c1ccc(Br)cc1,active: 7.08 µM
23,COc1ccc(C2c3c(-c4ccccc4O)n[nH]c3C(=O)N2Cc2ccco2)cc1OC (stereo not drawn),"inconclusive: 1 µM [inhibitor, full curve]"

row,Structure (SMILES),Potency
1,CC1CCCN(C(=S)Nc2ccc(Nc3ccccc3)cc2)C1 (stereo not drawn),"inconclusive: 17.8 µM [inhibitor, partial curve, poor fit]"
2,COC(=O)c1[nH]c(C)c(/C(O)=C2\C(=O)C(=O)N(CCN3CCOCC3)C2c2ccc(C)o2)c1C (stereo not drawn),"inconclusive: 1.26 µM [inhibitor, single point]"
3,CCN(CCCNC(=O)c1ccc(Sc2ccc(C)cc2)c(NC(C)=O)c1)c1cccc(C)c1,"inconclusive: 0.562 µM [inhibitor, full curve, poor fit]"
4,Cc1[nH]c2ccccc2c1C(=O)CSc1ccc(Cl)cc1,inactive
5,N#Cc1cccnc1Nc1ccc(Cl)cc1,inactive
6,Cc1cc(=O)[nH]c(Nc2ccc(C(=O)OC(C)C)cc2)n1,"inconclusive: 0.708 µM [activator, single point]"
7,COc1ccc(-c2n[nH]c3c2C(c2ccc(Cl)cc2Cl)NC3=O)cc1 (stereo not drawn),"inconclusive: 35.5 µM [inhibitor, single point]"
8,O=S(=O)(O)c1cc(O)c2c(O)c(N=Nc3cc(Cl)ccc3O)c(S(=O)(=O)O)cc2c1,"inconclusive: 1.41 µM [inhibitor, partial curve, poor fit]"
9,Cc1cccc([C@@H]2C[C@H]3CN(Cc4cccc(Cl)c4)C(=O)[C@]34CCCN24)n1,inactive
10,CCS(=O)(=O)n1nc(-c2ccccc2)nc1SCc1ccccc1,"inconclusive: 7.94 µM [inhibitor, partial curve, poor fit]"
11,c1ccc(-c2nc(-n3ccnc3)nc(-n3ccnc3)n2)cc1,inactive
12,O=C(NCCc1ccc(F)cc1)C(=O)NCC1CCCN1S(=O)(=O)c1cccs1 (stereo not drawn),"inconclusive: 7.08 µM [inhibitor, partial curve, poor fit]"
13,CC1CCC2C(=O)N(c3ccccc3OC(=O)c3ccccc3F)C(=O)C2C1 (stereo not drawn),"inconclusive: 11.2 µM [activator, single point]"
14,Cc1ccc(S(=O)(=O)c2nnn(CC(=O)Nc3ccccc3C)c2N)cc1C,inactive
15,OC1(c2cccc(C(F)(F)F)c2)CCN(c2ncnc3c2[nH]c2ccc(F)cc23)CC1,active: 14.1 µM
16,CCC(C)Cn1c(C(C)C)nc2ccccc21 (stereo not drawn),"inconclusive: 15.8 µM [activator, single point]"
17,COc1ccc(C(C)=O)cc1COC(=O)CNC(=O)c1ccc(F)cc1,inactive
18,CCOC(=O)CCc1c(C(=O)OCC)[nH]c(CC)c1C(=O)OCc1ccccc1,"inconclusive: 11.2 µM [inhibitor, partial curve, poor fit]"
19,COc1ccc(CN(C(=O)c2nsc(Cl)c2Cl)C(C(=O)NC2CCCC2)c2ccc(C)cc2)cc1 (stereo not drawn),active: 16.4 µM
20,COc1ccc(-n2cc(-c3ccccc3)[n+]3c2CCCCC3)cc1,"inconclusive: 12.6 µM [inhibitor, partial curve, poor fit]"
21,CN(C)c1nc(OCCNC(=O)Nc2ccccc2)nc(N2CCCCC2)n1,inactive
22,Cn1c(CN2CCCC2)nc2cc(NC(=O)Nc3ccccc3)ccc21,inactive
23,CC(SCc1cn2cc(Cl)ccc2n1)C(=O)O (stereo not drawn),inactive

# By substructure, the compounds so far containing a nitro group on carbon (three)
row,Structure (SMILES),Potency
9,CCn1c(/C=C/c2ccc([N+](=O)[O-])o2)nc2ccccc2c1=O,active: 3.66 µM
11,O=C(C1CCCC1)N1CCN=C1SCc1cccc([N+](=O)[O-])c1,"inconclusive: 12.6 µM [inhibitor, partial curve]"
21,Cc1ccc(C)c(OCC(=O)O/N=C(\N)c2cccc([N+](=O)[O-])c2)c1,"inconclusive: 4.47 µM [inhibitor, full curve, poor fit]"

# (next part)

row,Structure (SMILES),Potency
1,Cc1ccc(C)c(N2CCN(C(=O)c3ccc(CSc4nc5ccncc5[nH]4)cc3)CC2)c1,"inconclusive: 20.6 µM [inhibitor, single point]"
2,COc1ccc(/C=C2\CN(Cc3ccccc3)C/C(=C\c3ccc(OC)c(O)c3)C2=O)cc1O,"inconclusive: 2.51 µM [inhibitor, full curve, poor fit]"
3,CCOC(=O)CNC(c1ccccc1)c1cc(Br)ccc1NC(=O)c1ccc(Cl)cc1 (stereo not drawn),"inconclusive: 35.5 µM [inhibitor, single point]"
4,O=C(Nc1ccc(NC(=S)NC(=O)c2ccco2)cc1)c1ccccc1,inactive
5,O=C(NCc1cccc(Cl)c1)c1ccc(CS(=O)Cc2ccccc2Cl)o1 (stereo not drawn),"inconclusive: 35.5 µM [inhibitor, single point]"
6,CCc1ccc(NC(=O)C2CCN(S(=O)(=O)c3cccs3)CC2)cc1,"inconclusive: 1.78 µM [inhibitor, partial curve, poor fit]"
7,O=C1C2C3C=CC(C3)C2C(=O)N1c1ccc(Cc2ccncc2)cc1 (stereo not drawn),inactive
8,C=CCn1c(SCC(=O)N2CCc3ccccc3C2)nnc1-c1ccncc1,"inconclusive: 35.5 µM [inhibitor, single point]"
9,CCN(CC(=O)Nc1c(F)cccc1F)C(=O)c1cccnc1SC,"inconclusive: 3.16 µM [activator, partial curve, poor fit]"
10,CC(C)(C=O)Cc1cc(C(C)(C)C)c(O)c(C(C)(C)C)c1,"inconclusive: 6.51 µM [inhibitor, single point]"
11,COc1ccccc1OCC(=O)NCC1(N2CCOCC2)CCCCC1,inactive
12,Cc1cc2ccccn2c1C(=O)Nc1ccc(Cl)cc1,"inconclusive: 6.31 µM [inhibitor, partial curve, poor fit]"
13,O=C(CNC(=O)CNC(=O)c1ccc(Cl)cc1Cl)NCc1cccc(Cl)c1,inactive
14,N/C(=N\OC(=O)Cc1ccc(-c2ccccc2)cc1)c1cccc([N+](=O)[O-])c1,inactive
15,O=C(CSc1nc(-c2ccc(F)cc2)cs1)NCC1CCCO1 (stereo not drawn),inactive
16,Cc1cc(NC(=O)CSc2nc(-c3cccs3)cc(C(F)(F)F)n2)no1,"inconclusive: 0.92 µM [inhibitor, full curve, poor fit]"
17,CC(C)Cc1ccc(S(=O)(=O)Nc2ccc3[nH]c(=O)[nH]c3c2)cc1,"inconclusive: 35.5 µM [inhibitor, single point]"
18,Cc1cccc(-c2nnc(SCc3nc4ccccc4[nH]3)n2Cc2ccco2)c1,"inconclusive: 35.5 µM [inhibitor, partial curve, poor fit]"
19,CCOC(=O)c1c(NC(=O)CSc2nc3ccccc3[nH]2)sc2c1CC(C)(C)NC2(C)C,"inconclusive: 15.8 µM [inhibitor, single point]"
20,CC(=O)Cn1cnc2sc(-c3ccccc3)cc2c1=O,"inconclusive: 23.1 µM [activator, partial curve, poor fit]"
21,CCOc1cccc(N(C(=O)C2COc3ccccc3O2)C(C(=O)NC2CCCCC2)c2ccc(O)cc2)c1 (stereo not drawn),"inconclusive: 1.58 µM [inhibitor, full curve]"
22,O=[N+]([O-])c1ccc(C(O)CN=Cc2ccc(O)cc2O)cc1 (stereo not drawn),"inconclusive: 25.1 µM [inhibitor, single point]"
